Test results published in US20240197761A1, “FUCOSYLATION AND IMMUNE MODULATION IN CANCER” (H. LEE MOFFITT CANCER CENTER AND RESEARCH INSTITUTE, INC., priority 2021, published 2024).
These are yes or no findings as the source states them, for the method shown. For some of these results: Binding calls can cover weak binding; strength is not graded here. For some of these results: Binding seen in cells or lysates may run through a third protein.

Assays:
[1] = target: V5-tagged HLA-DRB1 N48G (N48G glyco-fucomutant) (human); experiment: AAL lectin pulldown and immunoblot, WM793 cells
[2] = target: V5-tagged HLA-DRB1 T129A (T129A glyco-fucomutant) (human); experiment: AAL lectin pulldown and immunoblot, WM793 cells
[3] = target: V5-tagged wild-type HLA-DRB1 (WT) (human); experiment: AAL lectin pulldown and immunoblot, WM793 cells
[4] = target: V5-tagged wild-type HLA-DRB1 (WT) (human); experiment: V5 immunoprecipitation and immunoblot analysis, WM793 cells

binding [1]: no binding
binding [2]: binds
binding [3]: binds
binding [4]: binds
B1: Aleuria aurantia lectin (AAL) (protein, UniProt P18891 2-313, looked up)
chain: PTEFLYTSKIAAISWAATGGRQQRVYFQDLNGKIREAQRGGDNPWTGGSSQNVIGEAKLFSPLAAVTWKSAQGIQIRVYCVNKDNILSEFVYDGSKWITGQLGSVGVKVGSNSKLAALQWGGSESAPPNIRVYYQKSNGSGSSIHEYVWSGKWTAGASFGSTVPGTGIGATAIGPGRLRIYYQATDNKIREHCWDSNSWYVGGFSASASAGVSIAAISWGSTPNIRVYWQKGREELYEAAYGGSWNTPGQIKDASRPTPSLPDTFIAANSSGNIDISVFFQASGVSLQQWQWISGKGWSIGAVVPTGTPAGW
